## Percent effect of library compounds

Amino acid sequences for entries named in this document (tags omitted). Residues count along the entry.
UniProt A4I591, 1-473: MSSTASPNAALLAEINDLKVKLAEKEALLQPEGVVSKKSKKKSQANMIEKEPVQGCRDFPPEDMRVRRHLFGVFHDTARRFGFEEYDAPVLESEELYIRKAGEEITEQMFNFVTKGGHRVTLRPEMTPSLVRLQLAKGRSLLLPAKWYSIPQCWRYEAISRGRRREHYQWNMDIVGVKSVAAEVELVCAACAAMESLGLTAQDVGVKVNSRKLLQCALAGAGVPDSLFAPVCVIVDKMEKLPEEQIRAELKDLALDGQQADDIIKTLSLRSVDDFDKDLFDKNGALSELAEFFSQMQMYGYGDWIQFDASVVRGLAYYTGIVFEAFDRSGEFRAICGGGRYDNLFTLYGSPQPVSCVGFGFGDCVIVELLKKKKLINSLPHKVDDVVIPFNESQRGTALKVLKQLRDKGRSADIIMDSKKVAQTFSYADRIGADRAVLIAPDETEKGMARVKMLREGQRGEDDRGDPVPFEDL
UniProt I6X8D2, whole entry: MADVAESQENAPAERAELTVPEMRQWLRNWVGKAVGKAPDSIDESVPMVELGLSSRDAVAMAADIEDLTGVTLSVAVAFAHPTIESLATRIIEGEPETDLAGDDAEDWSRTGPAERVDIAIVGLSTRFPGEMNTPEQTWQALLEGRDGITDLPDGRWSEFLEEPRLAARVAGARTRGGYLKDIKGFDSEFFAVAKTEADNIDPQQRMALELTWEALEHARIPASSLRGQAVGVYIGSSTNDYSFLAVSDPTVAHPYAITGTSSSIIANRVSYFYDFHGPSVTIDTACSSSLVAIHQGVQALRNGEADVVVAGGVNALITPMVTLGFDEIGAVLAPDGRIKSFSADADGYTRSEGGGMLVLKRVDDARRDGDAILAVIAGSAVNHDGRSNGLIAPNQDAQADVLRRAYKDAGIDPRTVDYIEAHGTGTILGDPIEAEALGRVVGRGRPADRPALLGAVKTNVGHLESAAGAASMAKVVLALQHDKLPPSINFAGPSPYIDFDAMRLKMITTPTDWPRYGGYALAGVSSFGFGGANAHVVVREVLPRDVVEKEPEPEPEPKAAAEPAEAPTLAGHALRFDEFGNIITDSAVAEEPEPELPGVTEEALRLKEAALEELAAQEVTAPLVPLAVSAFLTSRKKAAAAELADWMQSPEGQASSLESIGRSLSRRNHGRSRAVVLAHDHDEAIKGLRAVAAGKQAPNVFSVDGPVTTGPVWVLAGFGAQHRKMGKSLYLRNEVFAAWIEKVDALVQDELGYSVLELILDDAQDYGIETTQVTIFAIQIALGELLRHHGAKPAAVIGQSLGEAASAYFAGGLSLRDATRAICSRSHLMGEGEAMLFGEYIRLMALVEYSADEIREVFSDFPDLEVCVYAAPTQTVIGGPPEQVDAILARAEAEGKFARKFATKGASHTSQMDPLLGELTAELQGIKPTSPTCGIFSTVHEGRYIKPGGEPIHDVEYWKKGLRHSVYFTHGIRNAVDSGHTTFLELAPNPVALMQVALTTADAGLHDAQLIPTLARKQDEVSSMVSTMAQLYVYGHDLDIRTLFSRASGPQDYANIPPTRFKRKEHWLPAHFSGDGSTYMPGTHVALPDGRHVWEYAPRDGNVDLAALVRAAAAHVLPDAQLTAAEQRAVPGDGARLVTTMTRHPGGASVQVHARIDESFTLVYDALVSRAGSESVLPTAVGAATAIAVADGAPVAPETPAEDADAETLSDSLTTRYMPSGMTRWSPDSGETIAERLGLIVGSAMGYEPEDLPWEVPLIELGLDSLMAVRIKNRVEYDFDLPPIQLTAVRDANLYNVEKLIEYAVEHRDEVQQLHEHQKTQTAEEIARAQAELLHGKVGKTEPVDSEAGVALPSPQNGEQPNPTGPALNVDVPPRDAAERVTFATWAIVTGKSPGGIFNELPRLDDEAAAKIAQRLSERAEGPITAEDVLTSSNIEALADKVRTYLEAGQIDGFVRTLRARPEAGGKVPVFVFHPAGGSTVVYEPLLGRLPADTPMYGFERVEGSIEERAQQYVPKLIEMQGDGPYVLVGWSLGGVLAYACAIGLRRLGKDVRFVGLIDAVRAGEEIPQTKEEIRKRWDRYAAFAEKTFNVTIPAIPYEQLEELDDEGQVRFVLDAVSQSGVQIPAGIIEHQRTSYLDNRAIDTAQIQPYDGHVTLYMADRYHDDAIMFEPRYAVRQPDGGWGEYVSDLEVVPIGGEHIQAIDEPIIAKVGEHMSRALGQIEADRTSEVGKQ

A: 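Histidine-tRNA ligase, Leishmania infantum (UniProt A4I591). Enzyme assay of histidyl-tRNA synthetase; the read-out is not stated. Tested at 30 µM. Higher reads as stronger inhibition (inferred: compounds with an IC50 in retests scored well above the rest). The assay is labelled LdHisRS but filed under L. infantum. Of about 69,000 compounds tested this way, about 410 (0.6%) reached 50% or more in at least one test.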
B: 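Polyketide synthase Pks13, Mycobacterium tuberculosis (UniProt I6X8D2). Enzyme assay of the thioesterase domain of polyketide synthase 13; the read-out is not stated. Tested at 30 µM. Higher reads as stronger inhibition (inferred from which compounds were picked for retests). About 67,000 compounds were tested under these conditions; 0.46% (about 300) showed 50% or more at least once.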

Results are given as percent effect.
How 0% and 100% were set is not recorded. Most values in the screen are low, and negative values occur.
The compounds are a random part of those screened.
A dash means the value is not listed here; it may have been measured.

Compound | A | B
CCCN(CCC)C1(Cc2cc(-c3cccc(O)c3)on2)COC1 | 16.22 | 4.025
Cc1n[nH]cc1CNCC1(c2ccccc2Cl)CCOCC1 | 7.853 | -31.96
Cc1nn(C)c(C)c1S(=O)(=O)NCCn1ccc(-c2cccs2)n1 | 0 | -4.292
O=C(Cc1c[nH]c(=O)[nH]c1=O)N1CCC2(CCC(=O)N(C3CC3)C2)CC1 | 7.895 | -16.13
O=C(NC1CCC1)[C@H]1CCS(=O)(=O)[C@@H]2CN(CCc3ccccc3)C[C@H]12 | 14.29 | -22.46
CSCCC1c2nc[nH]c2CCN1Cc1ccccc1C(F)(F)F (stereo not shown) | 16.13 | -1.055
CC(=O)c1ccccc1-c1cc(C(=O)O)cc(S(=O)(=O)NC(C)C)c1 | 8.197 | 4.463
CC(C(=O)NCc1ccnc(N2CCCCCC2)c1)n1cccn1 (stereo not shown) | 8.929 | -24.44
CCCN1CCN(Cc2cc3cc(OCC)ccc3[nH]c2=O)CC1 | 15.29 | -13.2
O=C(c1ccc[nH]1)N1CC[C@@H](OCC2CC2)[C@@H]1Cc1cccnc1 | 16.67 | -14.5
COC(=O)NCCCC(=O)NCC1(c2cccc(Cl)c2)CC1 | 15 | -0.7834
COCCOc1ccc(NC(=O)C2CC(=O)N(C3CC3)C2)cn1 (stereo not shown) | 16.07 | 5.265
COc1ccccc1-n1nc(CC(C)C)nc1CSc1nnc(N)s1 | 0 | -8.965
COCCN(Cc1cccc(OCCO)c1)Cc1ccccc1F | 4.959 | -18.49
CC(C)CC(=O)N1CCN(Cc2cc(-c3ccncc3)nn2C)CC1 | 9.375 | 7.821
Cc1cc2nc(CO[C@H]3CN(C)C[C@H]3F)[nH]c2cc1C | 25.68 | -37.68
CC(=O)N1CCCN(C(=O)c2ccn(-c3cccc(Cl)c3)n2)CC1 | -2.74 | -7.698
CCOc1ccc(NC(=O)NC2CCc3[nH]ncc3C2)cn1 (stereo not shown) | 0 | -5.701
O=C1CNc2ncnc(N3CCN(Cc4ccccc4F)CC3)c2N1 | 23.46 | 84.59
CCN(C(=O)CN1CCCC1c1ccc(F)cc1)c1ccccc1C (stereo not shown) | 24.44 | -18.86
CCOCCN1CCN(c2ccc(C#N)cn2)CC1 | 3.529 | -5.654
O=C(NCCC1CCN(CC(F)(F)F)CC1)C1CCCOC1 (stereo not shown) | -0.885 | -4.437
COc1ccc(CNC(=O)Nc2ccc(N3CCCC3)nc2)cc1O | 20.18 | 17.95
CCOc1ncccc1CNS(=O)(=O)N1CCOCC1 | 11.11 | -13.43
CNS(=O)(=O)CC(=O)N(Cc1ccccc1)c1ccc(C)cc1 | 10.64 | -25.75
COc1cc(C(=O)NS(=O)(=O)c2cccc(C#N)c2)cc(Cl)c1OC | -6.154 | -6.799
O=C(CCN1C(=O)CC2(CCCC2)C1=O)NCCc1nccs1 | 22.5 | 8.698
CCCNC(=O)NCc1ccccc1NS(=O)(=O)c1ccccc1 | 6.25 | -21.36
CCCC(=O)N1CCc2nc3cc(OC)c(OC)cc3c(=O)n2CC1 | 15.94 | 9.93
Cn1cc(CN2CCOC3(CCCN(C(=O)c4ccco4)C3)C2)cn1 (stereo not shown) | 8.491 | -16.18
COc1cc(CNC(C)Cn2cccn2)cc2c1OCCO2 (stereo not shown) | 12.17 | -21.66
Cc1[nH]c2ccc(CNC3CCN(Cc4ccccn4)CC3)cc2c1C | 17.14 | -28.71
O[C@@H]1C[C@@](CNCC2CC2)(COc2cccnc2)C[C@@H]1O | 22.97 | -28.2
CCc1c(C)sc2ncnc(N3CCN(C4CCOCC4)CC3)c12 | 20 | -55.36
Cc1nc(CN2CCC(NS(C)(=O)=O)CC2)co1 | 16.67 | -
COc1coc(CN2CCCC3(CCC(=O)N(C4CC4)C3)C2)cc1=O (stereo not shown) | 26.67 | -18.3
CS(=O)(=O)CCCNCc1c(Cl)cccc1N1CCCC1 | 12.09 | -8.731
CCNc1ncc(C(=O)NCc2ccc(F)c(C(F)(F)F)c2)cn1 | 23.38 | -40.47
CC(C)OC(=O)c1ccc(Cl)c(NC(=O)NCCN2CCOCC2)c1 | 10.26 | -19.02
Cc1ccc(-n2nnc(C(=O)NCC3CCCCC3)n2)cc1 | 15.65 | -26.4
CC(Sc1nnc(C2CC2)n1CC(N)=O)c1ccc(F)c(Cl)c1 (stereo not shown) | 12 | -10.45
Cc1ccc(C(=O)N(Cc2ccc(F)cc2F)C2CC2)c(=O)[nH]1 | 13.7 | -11.41
Cc1nccn1CC1CCCN(C(=O)Cc2ccsc2)C1 (stereo not shown) | 3.614 | -8.76
O=C(c1cccnc1)N1CCCC(Cc2nccs2)C1 (stereo not shown) | 17.14 | 20.93
CN(Cc1ccc([S+](C)[O-])cc1)c1cncc(Br)c1 (stereo not shown) | -3.614 | 4.038
CCc1nc(C2CCCN2C(=O)c2ccc(N3CCCC3)nn2)no1 (stereo not shown) | 1.724 | -5.455
O=C(O)c1nnn(Cc2cccc(C(F)(F)F)c2)c1-c1ccncc1 | 6.667 | -29.49
O=C(Nc1cc(C(F)(F)F)c[nH]c1=O)N1CCSCC1 | 13.46 | -15.15
Cc1ccc2nc(C3CCCN3Cc3cccc(CCN)c3)[nH]c2c1 (stereo not shown) | 8.333 | -26.86
CN(Cc1ccco1)[C@@H]1CN(CC2CCOCC2)C[C@@H]2CCCO[C@@H]21 | 7 | 0.0869
Cn1ncnc1NS(=O)(=O)c1ccccc1 | 11.43 | -20.32
O=C(Cn1nc2ccccc2n1)N1CCCC(O)(CN2CCCC2)C1 (stereo not shown) | 17.65 | 3.064
CCN1CCN(c2ncc(-c3cc(C)no3)c(-c3ccoc3C)n2)CC1 | 16.67 | -27.01
CCN(CC)CCCNCc1cc2cc(C)ccc2[nH]c1=O | 15.6 | -4.309
CC(C)(C)n1ncc2c1NC(=O)CC2c1ccc(OCC(N)=O)cc1 (stereo not shown) | 19.05 | 1.387
O=C(NC[C@H]1OC[C@@H](NC2CCC(F)(F)CC2)[C@@H]1O)C1CCCC1 | 17.57 | -10.25
CC(C)(O)CN1CCN(C(=O)c2cccc3[nH]ncc23)CC1 | 16.98 | 0.9134
CS(=O)(=O)NC[C@H]1Cn2c(-c3ccccc3)cnc2CO1 | 22.97 | -37.29
Cc1cc(C(=O)N2C[C@H](C(C)C)[C@@H](N(C)C)C2)cs1 | 8.163 | 13.28
Cc1cc(C)c(C(=O)N2CCOC(CCN(C)C)C2)o1 (stereo not shown) | 2.041 | -36.84
O=C1CN(CCS(=O)(=O)c2ccc(Cl)cc2)CCN1 | 16.33 | -15.96
OCc1cn(Cc2cccc(F)c2)nn1 | 20.83 | -12.24
CSCC(=O)N1CCC(c2nccn2Cc2cscn2)CC1 | 8.8 | 30.72
CC(C)(CNc1ccc(C#N)c(C(F)(F)F)c1)C(N)=O | 21.92 | -5.315
Cn1cc(C2CCCN2Cc2csc(-c3ccsc3)n2)cn1 (stereo not shown) | 21.35 | -22.25
Cc1cccc(CN2C[C@@H]3CN(Cc4ccoc4)CCO[C@@H]3C2)n1 | 14 | -0.04707
OCC(CO)Nc1nc(C(F)F)nc2ccccc12 | 5.618 | -15.97
CC(c1ccncn1)N(C)Cc1cc(O)c2cc(F)ccc2n1 (stereo not shown) | 11.46 | -27.5
CN1CCCN(C(=O)c2cc(CN(C)CCc3ccccc3)on2)CC1 | 17.6 | -7.028
COCCc1noc(C2CCN(C(=O)Nc3cccs3)CC2)n1 | 21.37 | -2.851
CC(C)C(=O)N1CCC2(CC1)COCCN2Cc1ccc(F)cc1 | 17.43 | -5.432
CCc1nnc2n1CCN(C(=O)COCCc1ccccc1)C2 | 10.61 | -4.53

Once more, the final 5:

Compound,A,B
CC(c1ccncn1)N(C)Cc1cc(O)c2cc(F)ccc2n1 (stereo not shown),11.46,-27.5
CN1CCCN(C(=O)c2cc(CN(C)CCc3ccccc3)on2)CC1,17.6,-7.028
COCCc1noc(C2CCN(C(=O)Nc3cccs3)CC2)n1,21.37,-2.851
CC(C)C(=O)N1CCC2(CC1)COCCN2Cc1ccc(F)cc1,17.43,-5.432
CCc1nnc2n1CCN(C(=O)COCCc1ccccc1)C2,10.61,-4.53

Source: ChEMBL document CHEMBL3988442, “University of Dundee, Small-Polar-MMV Screening Library” (2021).